Peptide text beside a SMILES is read from it. * marks the point of attachment. Cbz = O=C(OCc1ccccc1)*
test system: HEK293 cells; test: HEK293 cytotoxicity assay (Cell Titer Glo 2.0); conditions: 48 h

Structure (SMILES)	Hill slope (HEK293 viability)
N[C@@H](CN[C@@H](CN[C@@H](CC(=O)O)C(=O)O)C(=O)O)C(=O)O.[Co+2] [Co-AMA]	-1.413
N[C@@H](CN[C@@H](CN[C@@H](CC(=O)O)C(=O)O)C(=O)O)C(=O)O.[Zn+2] [Zn-AMA]	-21.52
CC(C)C[C@@H](C=O)NC(=O)[C@H](CC(C)C)NC(=O)[C@H](CC(C)C)NC(=O)OCc1ccccc1 [MG132, reference compound] (Cbz-Leu-Leu-Leu-aldehyde)	-1.290

Reference: PMC11091072, “Targeting bacterial nickel transport with aspergillomarasmine A suppresses virulence-associated Ni-dependent enzymes” (Nature Communications, 2024)
